Data as given in publication PMC11642328.

Biological target: Recombinant full-length HF-TopBP1
Assay: pull-down; anti-FLAG antibody beads loaded with recombinant FLAG-tagged protein incubated in Xenopus egg extracts (also mock-depleted) with or without pA-pT; beads immunoblotted; only the target purified

- binding: binds
B1: NBS1, endogenous in Xenopus egg extracts (protein, UniProt Q6XV80 1-763)
chain: MWRLVAESAAGGTYHFLTGTDYVVGRKNCAILIPEDQSISRCHATLSVSHPSANLGQTNAASVLSIKDSSKYGTTVNGDKMNPAVPRNLKSGDKVTFGVFNSKYRVEYEPLVVCSSCLDNSEKNSLNQNLIHLGGHVLNNWTEKSTHLVMTSIKVTIKTICALICCKPIIKPDYFCELLHAIQEKRPLPDYRSFIPSVDEPSLTPESLDLSENVKRKSIFKDKVFLFLNAKQYKKLSPAVLFGGGKTDLLMGELKDASVLDNPATCVIDVAMTESQLSESQSTQPWITSTLDLLQSKGLRTIPEAEIGLAVINVSTEIYCNPRRRAASGTEAGTSKKMNVLSSTLCQGIAVDETILPAPTLDITAYAANTEPQDQTGTSWMNISGVREVKETPGNSSSHSRSKGCLQKDPKSGSSSNDLRQTLFREDETDTRKNTPSLLPTKSSARDVTKTSQKLQPTKKIDSYFQSLAKKRDRAEDEKEASSSKLPRVETLSSQTLEEKFPPVTQTLEEENFDSDLDMELAMSCDQILNDSMGSKAAMPEDSTVKKRKVPDDHVVEESDVDSDEGIRANAEQNDTKSDINVTKRRKVDSEIEGTKEPTIKPREIGTKAQVKTNSPEMAPAIRKEIEVKKELDIKKEPKSQWEESKFVPDLQGETDALPSRLLLTEFKSLVVSRPVRNNNATSNSSNGKCHNFKKFKKVAYPGAGSFPNIIGGSDLIAHDRKKNAELEQWLRQEVEEQTQQVREESLAEDLFRYNPKPSKRRR

These are yes or no findings as the source states them, for the method shown. In cells and extracts the contact can be indirect. A result given as binding can be weak or reduced; the word gives no strength.
